Positions count from the first letter of the chain named. In names and notes the source's numbering stands. Results are given in words; binding and its absence hold for the method and conditions named. In cells and extracts the contact can be indirect. Some entries that bind do so weakly or less than the wild type. For part of these data: Tags and fused reporters may be left off the sequences shown. Values belong to the molecule of their own block, whether it stands above or below them.
Legend:
[1] = biological target: T1, FLAG-tagged full-length PDZD8, stably expressed in MEFs (human) (UniProt Q8NEN9); assay: co-IP; MEFs stably expressing FLAG-tagged PDZD8-FL or PDZD8-CT, glucose-starved for 2 h or not, immunoprecipitation with anti-FLAG, blot for co-precipitated endogenous GLS1
T1 sequence: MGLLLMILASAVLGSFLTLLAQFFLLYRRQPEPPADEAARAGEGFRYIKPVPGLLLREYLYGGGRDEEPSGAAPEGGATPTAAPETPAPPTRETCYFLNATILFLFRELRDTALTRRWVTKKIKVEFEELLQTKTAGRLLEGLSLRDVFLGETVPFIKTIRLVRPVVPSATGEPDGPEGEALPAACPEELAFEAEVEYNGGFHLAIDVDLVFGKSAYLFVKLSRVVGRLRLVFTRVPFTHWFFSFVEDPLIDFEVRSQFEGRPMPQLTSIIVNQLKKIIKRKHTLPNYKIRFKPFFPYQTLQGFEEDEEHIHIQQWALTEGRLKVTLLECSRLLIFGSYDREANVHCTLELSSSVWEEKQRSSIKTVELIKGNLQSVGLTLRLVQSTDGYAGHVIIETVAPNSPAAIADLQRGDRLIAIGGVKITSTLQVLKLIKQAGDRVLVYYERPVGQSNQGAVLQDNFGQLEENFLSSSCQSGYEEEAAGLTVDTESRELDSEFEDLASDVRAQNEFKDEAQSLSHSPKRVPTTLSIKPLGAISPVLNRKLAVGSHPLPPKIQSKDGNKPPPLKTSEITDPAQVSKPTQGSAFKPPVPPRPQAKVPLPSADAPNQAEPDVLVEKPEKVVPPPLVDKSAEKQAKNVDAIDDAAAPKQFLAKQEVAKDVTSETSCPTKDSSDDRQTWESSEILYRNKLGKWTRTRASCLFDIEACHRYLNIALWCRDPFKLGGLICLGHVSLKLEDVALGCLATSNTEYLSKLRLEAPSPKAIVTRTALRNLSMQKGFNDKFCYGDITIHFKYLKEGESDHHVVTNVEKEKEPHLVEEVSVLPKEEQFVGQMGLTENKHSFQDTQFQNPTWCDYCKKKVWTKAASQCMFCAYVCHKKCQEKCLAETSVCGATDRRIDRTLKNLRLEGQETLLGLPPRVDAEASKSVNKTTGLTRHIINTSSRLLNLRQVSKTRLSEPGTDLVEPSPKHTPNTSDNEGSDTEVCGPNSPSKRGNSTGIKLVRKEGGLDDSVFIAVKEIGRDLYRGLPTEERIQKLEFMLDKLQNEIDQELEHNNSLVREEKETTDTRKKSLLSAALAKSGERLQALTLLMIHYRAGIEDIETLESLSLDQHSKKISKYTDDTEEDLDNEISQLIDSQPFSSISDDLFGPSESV

Amino acid sequences for entries named in this document (tags omitted). Residues count along the entry.
UniProt O94925, residues 55-669: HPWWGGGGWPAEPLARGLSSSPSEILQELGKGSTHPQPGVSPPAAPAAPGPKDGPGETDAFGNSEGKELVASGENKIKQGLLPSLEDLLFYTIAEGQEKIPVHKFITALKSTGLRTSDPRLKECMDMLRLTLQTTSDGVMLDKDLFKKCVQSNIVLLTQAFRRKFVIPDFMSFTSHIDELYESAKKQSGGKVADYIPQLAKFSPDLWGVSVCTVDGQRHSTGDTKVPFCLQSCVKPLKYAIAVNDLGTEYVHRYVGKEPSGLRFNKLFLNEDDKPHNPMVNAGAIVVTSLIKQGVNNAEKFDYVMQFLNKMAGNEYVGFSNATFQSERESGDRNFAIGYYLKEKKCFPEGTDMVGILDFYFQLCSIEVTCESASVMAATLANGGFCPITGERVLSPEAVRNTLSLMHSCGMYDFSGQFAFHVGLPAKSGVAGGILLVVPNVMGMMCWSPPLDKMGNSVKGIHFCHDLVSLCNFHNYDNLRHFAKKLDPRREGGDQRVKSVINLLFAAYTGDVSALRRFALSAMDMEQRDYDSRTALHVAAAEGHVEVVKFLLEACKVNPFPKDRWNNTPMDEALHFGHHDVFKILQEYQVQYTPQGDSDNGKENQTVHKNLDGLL
UniProt D3Z7P3, residues 55-674: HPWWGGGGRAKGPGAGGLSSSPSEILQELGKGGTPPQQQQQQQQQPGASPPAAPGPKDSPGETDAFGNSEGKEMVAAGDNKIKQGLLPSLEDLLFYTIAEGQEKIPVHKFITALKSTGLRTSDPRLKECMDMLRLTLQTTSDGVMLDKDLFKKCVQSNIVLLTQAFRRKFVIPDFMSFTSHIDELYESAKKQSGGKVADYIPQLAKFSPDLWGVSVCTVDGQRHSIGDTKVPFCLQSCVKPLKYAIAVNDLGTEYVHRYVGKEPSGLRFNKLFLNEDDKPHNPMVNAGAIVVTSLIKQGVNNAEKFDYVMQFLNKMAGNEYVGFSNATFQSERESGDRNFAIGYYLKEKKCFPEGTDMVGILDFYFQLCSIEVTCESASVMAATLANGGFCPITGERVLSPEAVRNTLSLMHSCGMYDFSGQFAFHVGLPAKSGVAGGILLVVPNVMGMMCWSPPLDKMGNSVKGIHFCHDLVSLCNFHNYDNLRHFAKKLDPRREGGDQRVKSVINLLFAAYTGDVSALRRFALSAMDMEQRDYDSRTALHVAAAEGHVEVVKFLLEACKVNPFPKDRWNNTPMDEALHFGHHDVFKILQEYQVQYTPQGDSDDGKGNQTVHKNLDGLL

[2] = biological target: GLS1, ectopically expressed in HEK293T cells (UniProt O94925); assay: co-IP; HEK293T cells transfected with expression plasmids for GLS1 and PDZD8, DDM/CHS lysis buffer, anti-HA, anti-Myc or anti-FLAG precipitation, 4 h at 4 °C
[3] = biological target: GLS1 (KGA)-mCherry, stably expressed in MEFs (UniProt O94925); assay: FRET or BRET; FRET-FLIM in living MEFs stably expressing GFP-PDZD8 (donor) and GLS1 (KGA)-mCherry; fluorescence lifetime of GFP, 37 °C; cells unstarved or glucose-starved for 2 h
[4] = biological target: glutaminase 1 (GLS1; both KGA and GAC), endogenous in MEFs (mouse (endogenous in MEFs)) (UniProt D3Z7P3); assay: proximity ligation; Duolink PLA in fixed MEFs expressing HA-tagged PDZD8 or its mutant, mouse anti-HA and rabbit anti-GLS1; cells unstarved or glucose-starved for 2 h; WT, AMPKα-/- and PDZD8-/- MEFs
[5] = biological target: glutaminase 1 (GLS1; both KGA and GAC), endogenous in MEFs (mouse (endogenous in MEFs)) (UniProt D3Z7P3); assay: co-IP; endogenous GLS1 (KGA and GAC) immunoprecipitated from MEF lysates in DDM/CHS lysis buffer (20 mM HEPES pH 7.4, 50 mM NaCl, 10 mM MgCl2, 0.5% DDM, 0.1% CHS), blot for co-precipitated PDZD8; cells unstarved or glucose-starved for 2 h; WT, AMPKα-/- and PDZD8-/- MEFs, the last with WT PDZD8 or PDZD8-T527A re-introduced

B2: GFP-PDZD8, stably expressed in MEFs (protein, UniProt Q8NEN9 1-1154)
chain: T1 sequence
- binding [3]: binds

B3: GFP-PDZD8-T527A, stably expressed in MEFs (protein, UniProt Q8NEN9 1-1154)
chain: T1 sequence with T527A
- binding [3]: binds

Continued, values first:

- binding [1]: binds
Molecule: glutaminase 1 (GLS1; both KGA and GAC), endogenous in MEFs (from UniProt D3Z7P3 55-674) (enzyme)

- binding [2]: binds
B1: PDZD8, ectopically expressed in HEK293T cells (protein, UniProt Q8NEN9 1-1154)
chain: T1 sequence

- binding [4]: binds
- binding [5]: binds
B4: HA-tagged PDZD8-T527A, stably expressed in MEFs (protein, UniProt Q8NEN9 1-1154)
chain: T1 sequence with T527A

Source: PMC11442470
